Screening data, single-dose tests

The chains behind the UniProt entries cited, without tags or fusion partners. Residues count along the entry.
UniProt A4I591, 1-473: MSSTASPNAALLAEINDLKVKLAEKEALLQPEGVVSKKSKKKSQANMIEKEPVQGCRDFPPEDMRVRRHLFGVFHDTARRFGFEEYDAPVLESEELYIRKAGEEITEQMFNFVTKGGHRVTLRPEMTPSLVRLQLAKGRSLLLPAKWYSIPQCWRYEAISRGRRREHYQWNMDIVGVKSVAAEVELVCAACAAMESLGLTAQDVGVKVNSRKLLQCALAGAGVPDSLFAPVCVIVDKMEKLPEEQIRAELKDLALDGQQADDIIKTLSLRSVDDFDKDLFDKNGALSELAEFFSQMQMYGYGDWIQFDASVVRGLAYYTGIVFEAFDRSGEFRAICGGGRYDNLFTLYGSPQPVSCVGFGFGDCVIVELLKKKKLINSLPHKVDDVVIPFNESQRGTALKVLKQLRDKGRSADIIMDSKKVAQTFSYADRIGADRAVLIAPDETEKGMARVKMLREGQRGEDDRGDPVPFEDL
UniProt P9WFT3, whole entry: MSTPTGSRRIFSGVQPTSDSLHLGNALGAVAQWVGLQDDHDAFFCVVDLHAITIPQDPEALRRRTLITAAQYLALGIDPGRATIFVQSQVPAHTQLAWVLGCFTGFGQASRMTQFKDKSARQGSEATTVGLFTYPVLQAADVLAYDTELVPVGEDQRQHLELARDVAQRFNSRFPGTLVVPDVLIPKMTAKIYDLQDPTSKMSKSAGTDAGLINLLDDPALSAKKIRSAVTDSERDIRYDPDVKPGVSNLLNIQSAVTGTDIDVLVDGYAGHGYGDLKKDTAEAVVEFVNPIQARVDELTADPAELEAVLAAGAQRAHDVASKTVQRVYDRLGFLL

Source: ChEMBL document CHEMBL3988442, “University of Dundee, Small-Polar-MMV Screening Library” (2021).

LiHisRS: 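Histidine-tRNA ligase, Leishmania infantum (UniProt A4I591). Enzyme assay of histidyl-tRNA synthetase; the read-out is not stated. Concentration: 30 µM. Direction is inferred from retests: higher values go with stronger inhibition. The assay is labelled LdHisRS but filed under L. infantum. Of about 69,000 compounds tested this way, about 410 (0.6%) reached 50% or more in at least one test.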
T. brucei: 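Whole-parasite assay of Trypanosoma brucei over 72 hours; the read-out is not stated. Concentration: 30 µM. Higher reads as stronger inhibition (inferred: compounds with an IC50 in retests scored well above the rest). Values scatter widely below zero; nearly all retest evidence comes from the higher of the two concentrations used. About 64,000 compounds were tested under these conditions; 1.5% (about 940) showed 50% or more at least once.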
MtTrpRS: 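Tryptophan-tRNA ligase, Mycobacterium tuberculosis (UniProt P9WFT3). Enzyme assay of tryptophanyl-tRNA synthetase; the read-out is not stated. Compounds at 10 µM. Direction is not recorded; retested compounds ran higher, which suggests that high means inhibition. About 65,000 compounds were tested under these conditions; 0.098% (about 64) showed 50% or more at least once.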

Values are the deposited “Percent Effect”, in %. The controls that fix the scale are not given in the record; negative values are as filed. This is an unselected part of the compounds tested. A dash means the value is not listed here; it may have been measured.

| Compound | LiHisRS | T. brucei | MtTrpRS |
|---|---|---|---|
| `CC(C)c1noc(CCC(=O)NC(C)c2nnc3n2CCC3)n1` (stereo unspecified) | 8.197 | -55.72 | -3.958 |
| `O=C(C1CC1)N1CC[C@H]2[C@@H]1CCC(=O)N2c1ccccc1` | 21.05 | - | 6.132 |
| `CN1C[C@@H](C(=O)N(C)C)[C@@]2(CCc3ccccc3C(=O)N2)C1.Cl` | - | -15.68 | - |
| `CN(Cc1ccn[nH]1)C(=O)CCC(=O)NC1CCCC1` | 12.9 | -11.62 | -1.502 |
| `CN(C)C(=O)c1c[nH]nc1-c1ccc(CNC(=O)c2cnccn2)cc1` | 7.194 | 6.239 | -6.38 |
| `CC(=O)N1N=C(COc2ccc3c(c2)OCO3)OC1c1cccc(Cl)c1` (stereo unspecified) | 7.895 | -51.53 | -6.339 |
| `NC(=O)CC1CCN(C(=O)NCc2ccccc2-n2cccn2)CC1` | 22.97 | -11.45 | -5.659 |
| `CN(C(=O)Nc1ccncc1)C1CCN(c2ccccc2)C1=O` (stereo unspecified) | 3.67 | - | -5.616 |
| `Cc1ccc(CN2CCC3(CCCN(Cc4ccc(F)c(F)c4)C3)C2)o1` (stereo unspecified) | -6.061 | 20.74 | -2.22 |
| `O=C(N[C@]12CC1CN(C(=O)c1ccco1)C2)c1ccco1` (stereo partly specified) | 23.3 | -11.29 | 7.033 |
| `Cc1ccc(S(=O)(=O)N2CCC(S(C)(=O)=O)CC2)cc1C` | 11.24 | -7.727 | 3.375 |
| `Cc1nccc(C(=O)N2CCCC2c2noc(C(C)C)n2)n1` (stereo unspecified) | 3.67 | - | 18.96 |
| `CC(C)(C)c1cc2ncn(CCCN3CCCCC3CO)c(=O)c2s1` (stereo unspecified) | 15.22 | -21.73 | -1.286 |
| `CN1CCN(C(=O)CCc2ccccc2)Cc2cccnc21` | 26.03 | - | -1.526 |
| `O=C(N1CCCC(n2cncn2)C1)C1(c2ccc(Cl)cc2)CCC1` (stereo unspecified) | 18.75 | -11.81 | -5.796 |
| `COCC1CN(c2ccc(C)nn2)Cc2cnn(C)c21` (stereo unspecified) | 18.87 | - | - |
| `COc1ccc(NC(=O)C(c2cccc(F)c2)N2CCOCC2)cc1` (stereo unspecified) | 11.43 | -8.693 | -7.097 |
| `CC(C)Oc1ccc(CN2CCCC(N3CCOCC3)C2)cc1CO` (stereo unspecified) | -4.11 | -18.79 | 1.365 |
| `O=C(NCC1CC1)C1CCC2(CCN(C(=O)c3ccoc3)CC2)O1` (stereo unspecified) | -13.76 | -11.66 | -0.6634 |
| `O=C(O)C(F)(F)F.[H][C@@]12COC[C@]1([H])[C@@H](OC)CN2Cc1ccc(CC)o1` | - | -29.49 | - |
| `CNC(=O)[C@@]12CCCN(c3ncccn3)[C@@H]1CN(C(=O)NC(C)C)C2` | 10.68 | - | -0.3307 |
| `CC(C)c1nc2c(n1C)CCN(Cc1nc(-c3ccsc3)no1)C2` | 27.69 | 59.36 | -2.235 |
| `CC(C)CN(C)S(=O)(=O)c1ccc(Cl)cc1C#N` | 6.593 | -59.13 | 4.238 |
| `c1cncc(OC2CCN(CCn3cc4ccccc4n3)CC2)c1` | 1.205 | -20.85 | -1.836 |
| `Cc1cc(NCCSc2nccn2C)n2nc(C)c(C)c2n1` | 11.7 | -28.71 | 4.258 |
| `CCCN(C(=O)c1cnns1)C1CCCN(Cc2ccccc2)C1` (stereo unspecified) | 16.44 | -12.78 | 0.149 |
| `Cc1csc(N2CCCN(C(=O)C(C(C)C)n3cncn3)CC2)n1` (stereo unspecified) | 24.62 | 2.491 | -0.6803 |
| `CN1C(=O)CC(c2cnn(C)c2)C12CCN(C(=O)c1cscn1)CC2` (stereo unspecified) | 6.422 | -24.62 | -2.215 |
| `FC1(F)CCN(Cc2ccncc2)CC12CCN(c1cccnc1)C2.O=C(O)C(F)(F)F.O=C(O)C(F)(F)F.O=C(O)C(F)(F)F` (stereo unspecified) | - | -14.72 | - |
| `CN(C)C(=O)CC1CC2(CCN(CC3CC3)CC2)c2cc(F)ccc21` (stereo unspecified) | 0 | - | -0.7846 |
| `CCn1ccnc1CN1CCC(CNC(=O)c2ccc(C)nc2)C1` (stereo unspecified) | 21.7 | -8.244 | 0.2486 |
| `CC(=O)NCC1CCC2(CCN(c3ncc(C)cn3)CC2)O1` (stereo unspecified) | 14.52 | -15.76 | 1.802 |
| `CCC(=O)Nc1c(C)nn(COc2cccc(F)c2)c1C` | 18.52 | 19.28 | 1.4 |
| `CCOc1ccc(C(=O)N2CCN(c3nccn3C)CC2)cc1.Cl` | - | -12.46 | - |
| `COCCOc1ccccc1C(=O)Nc1c(C)cnn1CC1CC1` | 0 | -39.23 | -1.175 |
| `CN(C(=O)Cn1nc(-c2ccc(F)cc2)oc1=O)c1ccccc1` | 14.4 | -51.23 | -2.257 |
| `CCc1n[nH]c(C2CN(C(=O)c3ccc(NC4CC4)nc3)CCO2)n1` (stereo unspecified) | 6.195 | - | -1.003 |
| `CNC(=O)COC(=O)c1ccoc1CN1c2ccccc2CC1C` (stereo unspecified) | 4.839 | -33.69 | -2.424 |
| `CC(C)c1nccc(N2CCN(CC(=O)N3CCOCC3)CC2)n1` | 13.16 | 5.253 | -2.652 |
| `CC(NC(=O)NCCn1ccnc1)c1nncn1C` (stereo unspecified) | 5.31 | - | 5.448 |
| `COC(=O)c1cc(C(=O)N2CCCCCC2)n(-c2ccccc2)n1` | 16.8 | -54.87 | -2.673 |
| `COc1ccc(C(=O)Nc2c(C)nc3cccc(C)n3c2=O)cc1` | 5.263 | -48.91 | 1.159 |
| `Cc1ccc(N2CCC3(CCN(C(=O)c4ccccn4)CC3)CC2)nn1.O=C(O)C(F)(F)F.O=C(O)C(F)(F)F` | - | 26.57 | - |
| `COc1ccccc1CNc1c(O)c(=O)c1=O` | 5.263 | -55.44 | -3.204 |
| `CC(C)S(=O)(=O)NCC1CCCN(C(=O)c2ccc3c(c2)CCC3)C1` (stereo unspecified) | 21.15 | -33.87 | -2.922 |
| `Cc1ccccc1C1CCN(CCNC(=O)CS(C)(=O)=O)C1` (stereo unspecified) | 24.18 | -44.37 | 6.225 |
| `Cc1cnn(C2CCCN(C(=O)c3ccc4c(c3)CCC4)C2)c1` (stereo unspecified) | 6.957 | 19.84 | -3.7 |
| `Cc1cc(S(=O)(=O)NCC[S+](C)[O-])c(F)cc1F` (stereo unspecified) | 11.9 | -18.26 | 4.464 |
| `CN(C(=O)c1ccc(Cl)cc1)C1CCN(c2ccccn2)CC1` | 15.04 | - | -1.755 |
| `Cc1cc(C(=O)N2CCCC2)ccc1NCCOCC(F)(F)F` | 19.3 | -26.11 | -3.269 |
| `Cc1nc(C)c(CC(=O)Nc2ncc(C)s2)c(=O)[nH]1` | 23.2 | -25.09 | -2.516 |
| `COCCN1C[C@H]2CC[C@@H]1CN(C(=O)CCc1c(C)nn(C)c1C)C2` | 20.16 | - | 0.08211 |
| `CC1CCN(S(=O)(=O)N2Cc3ccccc3C[C@H]2C(N)=O)CC1` | 19.05 | -19.45 | 1.584 |
| `CC(=O)N1CCN(c2cc(-n3cnc(C)c3C)nc(C)n2)CC1` | 1.613 | -30.02 | 0.2694 |
| `CC1c2ncc(Cn3cccn3)n2CCN1Cc1cccnc1` (stereo unspecified) | 18.06 | - | 0.6352 |
| `Clc1ccccc1CNC(Cn1cncn1)c1ccccc1` (stereo unspecified) | -2.74 | -62.54 | -0.2974 |
| `CCNC(=O)CCC(=O)NCC1(O)CCC(C(C)(C)C)CC1` (stereo unspecified) | 10.42 | 16.73 | 0.9288 |
| `O=C(O)C(F)(F)F.[H][C@@]12COC[C@]1([H])[C@@H](OCC(=O)N(C)C)CN2Cc1ccoc1` | - | -38.22 | - |
| `COc1ccc(CC(=O)N2CCCC2c2nc(C)c(C)c(O)n2)cc1` (stereo unspecified) | 15.79 | 10.06 | 5.275 |
| `[H][C@]12CN(C(=O)OC)CCN1C[C@H](CO)[C@H]2c1ccccc1` | - | -22.89 | - |
| `CC(C)C(=O)N1CCN(Cc2csc(-c3ccccn3)n2)CC1` | 18.75 | 34.53 | 2.245 |
| `CSCc1noc(Cn2ncn3cccc3c2=O)n1` | 13.43 | -23.36 | -1.911 |
| `COCCC1(CNC(=O)Nc2ccnc(C)c2)CCCC1` | 9.756 | 5.014 | -1.485 |
| `O=C(NC1CC1)c1ccc(SCc2cscn2)cc1` | 22.39 | -7.424 | -0.09099 |
| `Cc1ccc(CNC(C)c2ccc(OCC(=O)NC3CC3)cc2)o1` (stereo unspecified) | 9.565 | 0.7789 | 2.939 |
| `Cl.Cn1ncc2c1CCCC2NCc1cccc(F)c1` (stereo unspecified) | - | -9.663 | - |
| `CC(C)CCC(C)NC(=O)c1ccc(OCC(N)=O)cc1` (stereo unspecified) | 15.38 | -7.519 | -6.115 |
| `CCn1c(CNCC2CCCN2c2cccnn2)nc2ccccc21` (stereo unspecified) | 12.5 | -3.594 | -1.557 |
| `O=C(c1c[nH]cn1)N1CCC(n2cc(-c3ccsc3)nn2)CC1` | 11.29 | -11.45 | 1.065 |
| `Cn1ccnc1C(=O)N1CCOC(Cc2ccccc2Cl)C1` (stereo unspecified) | 13.68 | 17.43 | 13.74 |

Some entries from above, unchanged:

{"compound": "CNC(=O)COC(=O)c1ccoc1CN1c2ccccc2CC1C", "stereo": "stereo unspecified", "LiHisRS": 4.839, "T. brucei": -33.69, "MtTrpRS": -2.424}
{"compound": "CCC(=O)Nc1c(C)nn(COc2cccc(F)c2)c1C", "LiHisRS": 18.52, "T. brucei": 19.28, "MtTrpRS": 1.4}
{"compound": "COCCC1(CNC(=O)Nc2ccnc(C)c2)CCCC1", "LiHisRS": 9.756, "T. brucei": 5.014, "MtTrpRS": -1.485}
{"compound": "CCn1c(CNCC2CCCN2c2cccnn2)nc2ccccc21", "stereo": "stereo unspecified", "LiHisRS": 12.5, "T. brucei": -3.594, "MtTrpRS": -1.557}
{"compound": "O=C(N[C@]12CC1CN(C(=O)c1ccco1)C2)c1ccco1", "stereo": "stereo partly specified", "LiHisRS": 23.3, "T. brucei": -11.29, "MtTrpRS": 7.033}
{"compound": "Cc1csc(N2CCCN(C(=O)C(C(C)C)n3cncn3)CC2)n1", "stereo": "stereo unspecified", "LiHisRS": 24.62, "T. brucei": 2.491, "MtTrpRS": -0.6803}
{"compound": "O=C(O)C(F)(F)F.[H][C@@]12COC[C@]1([H])[C@@H](OC)CN2Cc1ccc(CC)o1", "T. brucei": -29.49}